# Reference: patent publication US20240025992A1
# No constants are given. Whether binding was seen depends on the method and setting. Some binding calls cover weakened binding; strength is not graded here.
# B1: DL3B572 (Fc fusion, not shown: a dimerising Fc or GST)
# scFv: EVQLVQSGAEVKKPGASVKVSCKASGYTFTTYYIHWVRQAPGQGLEWMGIIDPSGGRTSYAQKFLGRVTMTRDTSTSTVYMELRSLRSEDTAVYYCARGGDGTWYYGMDVWGQGTTVTVSSGGSEGKSSGSGSESKSTGGSDIVMTQSPSFLSASVGDRVTITCRASQGISNYLAWYQQKPGKAPKLLIYAASTLQSGVPSRFSGSGSGTEFTLTISSLQPEDFATYYCQQLNSYPLTFGGGTKVEIK
# Target: DL3W36, human DLL3 EGF6 domain+C-term ECD sequence, HSA Fusion and C-term 6 His tag (human)
# Assay: MSD plate binding assay on coated DLL3 domain-HSA fusions
binder,measurement,value
B1,binding,binds
